Residues, ends and D or L forms follow the SMILES beside them.
Test system: bEVs from K. pneumoniae
Assay: SPR interaction with immobilized bEVs

SMILES	lower KD compared to the KD for other clinical strains (K. pneumoniae bEVs versus bEVs of the other clinical strains)	increase in KD (K. pneumoniae bEVs compared with bEVs from A. baumannii and E. coli ΔtolA)
NCCCC[C@@H]1NC(=O)[C@H](CCCCN)NC(=O)[C@H](Cc2c[nH]c3ccccc23)NC(=O)[C@H](Cc2c[nH]c3ccccc23)NC(=O)[C@H](Cc2c[nH]c3ccccc23)NC(=O)[C@H](CCCCN)NC1=O [c-WWWKKK] (cyclo(WWWKKK))	approximately 5 fold	
NCCCC[C@@H]1NC(=O)[C@H](Cc2c[nH]c3ccccc23)NC(=O)[C@H](CCCCN)NC(=O)[C@H](Cc2c[nH]c3ccccc23)NC(=O)[C@H](CCCCN)NC(=O)[C@H](Cc2c[nH]c3ccccc23)NC1=O [c-WKWKWK] (cyclo(WKWKWK))		twofold increase

— article PMC10751319, “Bacterial extracellular vesicles: towards realistic models for bacterial membranes in molecular interaction studies by surface plasmon resonance” (Frontiers in Molecular Biosciences, 2023)
